Experimental data: PubChem BioAssay AID1053208 (Peter MacCallum Cancer Centre, 2014)

- Purpose: 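Genes whose silencing cuts survival of bone tumour cells only with doxorubicin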 (primary screen)
- Cell system: mouse osteosarcoma cells, early-passage culture from an engineered mouse model of fibroblastic bone tumour
- Knock-down reagent: siRNA pool against mouse genes, 40 nM
- Time to read-out: about 120 h (48 h before drug, then 72 h with drug)
- Treatment: doxorubicin 100 nM for 72 h, roughly 30-40% inhibitory dose
- Measured: 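Viability read as ATP luminescence after 72 h of 100 nM doxorubicin or none, duplicate wells averaged, scaled to non-targeting siRNA, then expressed as robust z-scores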
- Scale: viability z-score with doxorubicin and doxorubicin viability vs non-targeting: higher = more viable cells under doxorubicin; viability z-score without drug: higher = more viable cells with knock-down alone; z-score of drug to no-drug ratio: higher = less drug sensitisation by knock-down
- Rule for the call: 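Called active if knock-down leaves viability unchanged without drug (z within -2 to 2) but lowers it with doxorubicin (z at or under -2)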
This is a random part of about 17,000 reagents tested. 788 of all reagents (4.7%) were called active. 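Calls rest on z-score classes alone; an extra cut-off of viability at most 70% of control was not applied to them.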 Unmarked entries are inactive. Reagents against one gene are numbered here.

| Gene | reagent no. | combined z-score class | viability z-score with doxorubicin | viability z-score without drug | z-score of drug to no-drug ratio | doxorubicin viability vs non-targeting |
| --- | --- | --- | --- | --- | --- | --- |
| Slc35g3 (GeneID 56293) | 1 | no change with or without drug | 0 | 0.84 | -0.45 | 0.94 |
| Tmem65 (GeneID 74868) | 1 | high cell count without drug only | 0.45 | 2.36 | -0.9 | 0.98 |
| Pld2 (GeneID 18806) | 1 | no change with or without drug | -0.79 | -0.17 | -0.56 | 0.87 |
| Pfn1 (GeneID 18643) | 1 | no change with or without drug | 0.56 | 1.69 | -0.45 | 0.99 |
| Cnppd1 (GeneID 69171) | 1 | no change with or without drug | -0.22 | 1.85 | -1.24 | 0.92 |
| Csgalnact1 (GeneID 234356) | 1 | no change with or without drug | -0.9 | 0.17 | -0.9 | 0.86 |
| Serpini1 (GeneID 20713) | 1 | no change with or without drug | 1.57 | 1.18 | 0.9 | 1.08 |
| Fam184b (GeneID 58227) | 1 | no change with or without drug | 0.45 | 0.84 | 0 | 0.98 |
| Fam78a (GeneID 241303) | 1 | no change with or without drug | -1.46 | -1.52 | -0.45 | 0.81 |
| Pde4d (GeneID 238871) | 1 | no change with or without drug | -0.45 | -1.18 | 0.45 | 0.9 |
| Pde4d (GeneID 238871) | 2 | low cell count with doxorubicin only (active) | -2.7 | -0.84 | -2.25 | 0.7 |
| Or2n1b (GeneID 258828) | 1 | no change with or without drug | 0.45 | -0.51 | 1.01 | 0.98 |
| Pde1c (GeneID 18575) | 1 | no change with or without drug | 1.12 | 1.18 | 0.45 | 1.04 |
| Ppp6c (GeneID 67857) | 1 | no change with or without drug | -0.45 | 1.52 | -1.24 | 0.9 |
| Slc9a6 (GeneID 236794) | 1 | no change with or without drug | -0.22 | -0.17 | 0 | 0.92 |
| Fgf16 (GeneID 80903) | 1 | no change with or without drug | -0.11 | -0.17 | 0.11 | 0.93 |
| Alg2 (GeneID 56737) | 1 | no change with or without drug | 0.22 | 0.51 | 0 | 0.96 |
| Atp6v1f (GeneID 66144) | 1 | no change with or without drug | -0.67 | 0.84 | -1.12 | 0.88 |
| Arhgap27 (GeneID 544817) | 1 | no change with or without drug | -1.35 | 0.51 | -1.57 | 0.82 |
| Arhgap27 (GeneID 544817) | 2 | no change with or without drug | -0.11 | 0.34 | -0.22 | 0.93 |
| Or5t5 (GeneID 258363) | 1 | no change with or without drug | 0.34 | 1.52 | -0.56 | 0.97 |
| Ptpro (GeneID 19277) | 1 | no change with or without drug | -1.12 | -0.34 | -0.9 | 0.84 |
| Spats2 (GeneID 72572) | 1 | low cell count without drug only | -0.9 | -2.02 | 0.67 | 0.86 |
| Hspe1 (GeneID 15528) | 1 | no change with or without drug | 1.12 | -0.17 | 1.46 | 1.04 |
| Ruvbl1 (GeneID 56505) | 1 | no change with or without drug | -0.45 | -0.51 | 0 | 0.9 |
| Aco1 (GeneID 11428) | 1 | no change with or without drug | -1.01 | -0.51 | -0.67 | 0.85 |
| Cfc1 (GeneID 12627) | 1 | no change with or without drug | -0.34 | -1.18 | 0.56 | 0.91 |
| Apobec2 (GeneID 11811) | 1 | no change with or without drug | 1.57 | -0.17 | 1.91 | 1.08 |
| Atp12a (GeneID 192113) | 1 | no change with or without drug | 0.45 | 0 | 0.56 | 0.98 |
| Rhag (GeneID 19743) | 1 | no change with or without drug | -0.22 | -0.17 | 0 | 0.92 |
| Tbrg3 (GeneID 21378) | 1 | no change with or without drug | -1.01 | -1.18 | -0.11 | 0.85 |
| Ptf1a (GeneID 19213) | 1 | no change with or without drug | -0.34 | 1.69 | -1.24 | 0.91 |
| Acot3 (GeneID 171281) | 1 | no change with or without drug | -0.22 | 0.67 | -0.56 | 0.92 |
| Itga11 (GeneID 319480) | 1 | no change with or without drug | -1.57 | -0.84 | -1.01 | 0.8 |
| Il23a (GeneID 83430) | 1 | no change with or without drug | 0.67 | 1.18 | 0 | 1 |
| Or8b47 (GeneID 258873) | 1 | no change with or without drug | -0.22 | -0.17 | 0 | 0.92 |
| Or2y1b (GeneID 18307) | 1 | no change with or without drug | 1.01 | -0.67 | 1.69 | 1.03 |
| Akr1b1 (GeneID 11677) | 1 | no change with or without drug | 0 | 1.52 | -0.9 | 0.94 |
| Chrna1 (GeneID 11435) | 1 | no change with or without drug | -0.22 | -0.17 | 0 | 0.92 |
| Tmem128 (GeneID 66309) | 1 | no change with or without drug | 0.45 | -0.84 | 1.24 | 0.98 |
| Klhl4 (GeneID 237010) | 1 | no change with or without drug | 0 | 1.18 | -0.67 | 0.94 |
| Cpne2 (GeneID 234577) | 1 | no change with or without drug | -0.9 | -0.84 | -0.22 | 0.86 |
| Khdrbs1 (GeneID 20218) | 1 | no change with or without drug | -1.46 | -1.18 | -0.67 | 0.81 |
| Nos2 (GeneID 18126) | 1 | no change with or without drug | -0.22 | -0.17 | 0 | 0.92 |
| Fbp1 (GeneID 14121) | 1 | no change with or without drug | 0.45 | -0.17 | 0.67 | 0.98 |
| Sox13 (GeneID 20668) | 1 | low cell count with doxorubicin only (active) | -2.25 | -1.18 | -1.57 | 0.74 |
| Usp37 (GeneID 319651) | 1 | no change with or without drug | -0.79 | -0.17 | -0.56 | 0.87 |
| Dppa5a (GeneID 434423) | 1 | no change with or without drug | 0.67 | 0.84 | 0.22 | 1 |
| Il36rn (GeneID 54450) | 1 | no change with or without drug | -1.69 | -1.01 | -1.01 | 0.79 |
| Dnajc6 (GeneID 72685) | 1 | no change with or without drug | -0.45 | 0.51 | -0.67 | 0.9 |

Not a retest: entries from further up.
| Gene | reagent no. | combined z-score class | viability z-score with doxorubicin | viability z-score without drug | z-score of drug to no-drug ratio | doxorubicin viability vs non-targeting |
| --- | --- | --- | --- | --- | --- | --- |
| Serpini1 (GeneID 20713) | 1 | no change with or without drug | 1.57 | 1.18 | 0.9 | 1.08 |
| Fam184b (GeneID 58227) | 1 | no change with or without drug | 0.45 | 0.84 | 0 | 0.98 |
| Fam78a (GeneID 241303) | 1 | no change with or without drug | -1.46 | -1.52 | -0.45 | 0.81 |
| Pde4d (GeneID 238871) | 1 | no change with or without drug | -0.45 | -1.18 | 0.45 | 0.9 |
